Measured values from article doi:10.1101/2023.10.14.562322.
Like-named read-outs stand apart in the source and are kept apart here. No constants are given. Whether binding was seen depends on the method and setting. Binding seen in cells or lysates may run through a third protein. Some entries that bind do so weakly or less than the wild type. For some of these results: Tags and fused reporters may be left off the sequences shown. Values belong to the molecule of their own block, whether it stands above or below them.

Sequences of proteins named here, by UniProt entry; tags and fusion partners are left off.
UniProt O15371: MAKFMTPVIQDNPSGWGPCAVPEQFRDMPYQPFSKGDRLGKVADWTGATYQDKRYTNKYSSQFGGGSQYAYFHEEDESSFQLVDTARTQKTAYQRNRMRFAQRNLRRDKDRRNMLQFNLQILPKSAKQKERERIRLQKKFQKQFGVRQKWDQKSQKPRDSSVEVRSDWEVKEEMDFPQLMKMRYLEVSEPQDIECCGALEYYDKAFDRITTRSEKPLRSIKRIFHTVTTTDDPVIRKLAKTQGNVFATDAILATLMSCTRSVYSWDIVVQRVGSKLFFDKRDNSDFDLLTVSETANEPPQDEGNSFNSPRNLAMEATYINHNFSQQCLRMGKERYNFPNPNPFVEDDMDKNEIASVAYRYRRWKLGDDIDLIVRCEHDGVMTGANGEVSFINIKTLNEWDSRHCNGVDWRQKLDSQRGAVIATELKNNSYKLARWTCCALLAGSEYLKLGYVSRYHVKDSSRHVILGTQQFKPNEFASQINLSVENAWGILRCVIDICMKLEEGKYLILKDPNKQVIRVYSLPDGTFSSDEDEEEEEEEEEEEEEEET
UniProt P60228: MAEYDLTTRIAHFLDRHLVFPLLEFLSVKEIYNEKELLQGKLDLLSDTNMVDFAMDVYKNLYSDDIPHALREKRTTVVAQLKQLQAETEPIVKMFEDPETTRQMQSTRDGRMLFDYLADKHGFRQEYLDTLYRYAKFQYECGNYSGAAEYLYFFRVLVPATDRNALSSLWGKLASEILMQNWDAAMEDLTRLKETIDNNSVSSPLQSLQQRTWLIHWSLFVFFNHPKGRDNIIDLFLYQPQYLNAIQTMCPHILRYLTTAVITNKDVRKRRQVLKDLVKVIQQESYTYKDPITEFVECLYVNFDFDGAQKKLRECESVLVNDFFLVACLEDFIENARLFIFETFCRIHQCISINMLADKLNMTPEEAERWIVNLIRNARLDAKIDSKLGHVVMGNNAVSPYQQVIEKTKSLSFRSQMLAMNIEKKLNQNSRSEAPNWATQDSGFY
UniProt Q9Y262: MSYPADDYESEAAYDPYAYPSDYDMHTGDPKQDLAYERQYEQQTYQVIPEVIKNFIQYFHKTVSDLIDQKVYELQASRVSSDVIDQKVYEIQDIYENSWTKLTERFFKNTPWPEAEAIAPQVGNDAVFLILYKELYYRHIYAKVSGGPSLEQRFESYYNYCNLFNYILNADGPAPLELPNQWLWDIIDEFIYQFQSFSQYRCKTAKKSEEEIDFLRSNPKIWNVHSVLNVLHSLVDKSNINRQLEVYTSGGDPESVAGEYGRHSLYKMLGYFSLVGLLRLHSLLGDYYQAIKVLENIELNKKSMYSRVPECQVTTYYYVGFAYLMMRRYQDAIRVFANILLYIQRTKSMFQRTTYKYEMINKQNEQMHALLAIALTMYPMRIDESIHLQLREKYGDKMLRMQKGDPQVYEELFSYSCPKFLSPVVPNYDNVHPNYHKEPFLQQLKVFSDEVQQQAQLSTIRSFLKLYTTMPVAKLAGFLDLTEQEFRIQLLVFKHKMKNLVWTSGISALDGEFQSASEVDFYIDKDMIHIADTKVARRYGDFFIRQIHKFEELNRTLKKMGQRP
UniProt Q04637: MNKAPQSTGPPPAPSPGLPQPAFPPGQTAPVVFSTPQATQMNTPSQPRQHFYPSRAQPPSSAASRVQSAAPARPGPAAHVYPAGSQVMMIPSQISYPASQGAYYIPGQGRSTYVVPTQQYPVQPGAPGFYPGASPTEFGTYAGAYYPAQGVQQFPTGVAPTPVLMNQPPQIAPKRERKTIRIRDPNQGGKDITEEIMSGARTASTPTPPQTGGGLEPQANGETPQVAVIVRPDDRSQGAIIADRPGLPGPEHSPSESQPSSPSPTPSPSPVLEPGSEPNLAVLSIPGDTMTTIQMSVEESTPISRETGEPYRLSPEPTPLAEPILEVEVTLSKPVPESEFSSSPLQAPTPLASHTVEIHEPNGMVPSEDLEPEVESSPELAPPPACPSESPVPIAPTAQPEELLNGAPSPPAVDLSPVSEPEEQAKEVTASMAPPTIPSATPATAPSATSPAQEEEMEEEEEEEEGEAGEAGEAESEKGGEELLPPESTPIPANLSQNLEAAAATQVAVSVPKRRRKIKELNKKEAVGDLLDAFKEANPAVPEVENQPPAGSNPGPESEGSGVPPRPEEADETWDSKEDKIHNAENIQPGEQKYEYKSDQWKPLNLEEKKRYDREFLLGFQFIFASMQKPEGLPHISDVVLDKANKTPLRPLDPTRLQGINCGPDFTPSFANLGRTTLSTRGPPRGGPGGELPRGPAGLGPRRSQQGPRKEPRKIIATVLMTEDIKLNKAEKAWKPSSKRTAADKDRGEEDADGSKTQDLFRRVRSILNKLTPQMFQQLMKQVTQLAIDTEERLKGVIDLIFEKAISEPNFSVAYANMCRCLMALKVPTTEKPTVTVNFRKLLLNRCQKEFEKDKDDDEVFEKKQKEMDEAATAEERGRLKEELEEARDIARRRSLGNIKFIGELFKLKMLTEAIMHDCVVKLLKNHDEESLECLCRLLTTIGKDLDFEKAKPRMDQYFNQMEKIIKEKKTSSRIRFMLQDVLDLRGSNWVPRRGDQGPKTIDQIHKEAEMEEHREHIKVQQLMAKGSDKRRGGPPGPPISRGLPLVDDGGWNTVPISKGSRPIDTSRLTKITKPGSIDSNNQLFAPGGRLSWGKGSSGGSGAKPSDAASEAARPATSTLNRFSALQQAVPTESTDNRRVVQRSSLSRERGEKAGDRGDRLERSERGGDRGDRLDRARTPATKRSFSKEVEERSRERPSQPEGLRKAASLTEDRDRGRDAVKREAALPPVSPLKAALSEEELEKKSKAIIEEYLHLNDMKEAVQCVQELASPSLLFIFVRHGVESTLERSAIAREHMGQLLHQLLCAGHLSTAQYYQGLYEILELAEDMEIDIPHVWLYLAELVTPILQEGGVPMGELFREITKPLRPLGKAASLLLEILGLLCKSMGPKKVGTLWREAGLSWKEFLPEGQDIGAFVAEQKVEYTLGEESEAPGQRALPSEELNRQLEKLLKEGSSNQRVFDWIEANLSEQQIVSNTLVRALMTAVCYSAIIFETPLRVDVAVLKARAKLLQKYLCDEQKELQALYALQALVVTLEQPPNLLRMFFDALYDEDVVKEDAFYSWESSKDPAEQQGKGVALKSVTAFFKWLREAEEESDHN
UniProt P05198: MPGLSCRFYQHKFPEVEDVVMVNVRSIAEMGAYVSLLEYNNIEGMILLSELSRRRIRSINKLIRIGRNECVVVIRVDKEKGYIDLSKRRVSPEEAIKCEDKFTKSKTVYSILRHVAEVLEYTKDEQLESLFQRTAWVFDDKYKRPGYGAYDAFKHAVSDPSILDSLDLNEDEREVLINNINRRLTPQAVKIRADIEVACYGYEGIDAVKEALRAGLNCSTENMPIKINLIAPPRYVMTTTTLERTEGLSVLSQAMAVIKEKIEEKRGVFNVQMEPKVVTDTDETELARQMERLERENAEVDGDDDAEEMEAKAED

Key:
[1] = target: endogenous eIF3D (human (endogenous in HEK293)) (UniProt O15371); assay: co-IP
[2] = target: endogenous eIF3E (human (endogenous in HEK293)) (UniProt P60228); assay: co-IP
FLAG-eIF3D [3] = target: FLAG-eIF3D (UniProt O15371); assay: proximity ligation
FLAG-eIF3D [4] = target: FLAG-eIF3D (UniProt O15371); assay: co-IP
[5] = target: T1, GYF motif mutant v5-GIGYF1 (G502A, Y503A, F504A) (human) (UniProt O75420); assay: co-IP
T1 sequence: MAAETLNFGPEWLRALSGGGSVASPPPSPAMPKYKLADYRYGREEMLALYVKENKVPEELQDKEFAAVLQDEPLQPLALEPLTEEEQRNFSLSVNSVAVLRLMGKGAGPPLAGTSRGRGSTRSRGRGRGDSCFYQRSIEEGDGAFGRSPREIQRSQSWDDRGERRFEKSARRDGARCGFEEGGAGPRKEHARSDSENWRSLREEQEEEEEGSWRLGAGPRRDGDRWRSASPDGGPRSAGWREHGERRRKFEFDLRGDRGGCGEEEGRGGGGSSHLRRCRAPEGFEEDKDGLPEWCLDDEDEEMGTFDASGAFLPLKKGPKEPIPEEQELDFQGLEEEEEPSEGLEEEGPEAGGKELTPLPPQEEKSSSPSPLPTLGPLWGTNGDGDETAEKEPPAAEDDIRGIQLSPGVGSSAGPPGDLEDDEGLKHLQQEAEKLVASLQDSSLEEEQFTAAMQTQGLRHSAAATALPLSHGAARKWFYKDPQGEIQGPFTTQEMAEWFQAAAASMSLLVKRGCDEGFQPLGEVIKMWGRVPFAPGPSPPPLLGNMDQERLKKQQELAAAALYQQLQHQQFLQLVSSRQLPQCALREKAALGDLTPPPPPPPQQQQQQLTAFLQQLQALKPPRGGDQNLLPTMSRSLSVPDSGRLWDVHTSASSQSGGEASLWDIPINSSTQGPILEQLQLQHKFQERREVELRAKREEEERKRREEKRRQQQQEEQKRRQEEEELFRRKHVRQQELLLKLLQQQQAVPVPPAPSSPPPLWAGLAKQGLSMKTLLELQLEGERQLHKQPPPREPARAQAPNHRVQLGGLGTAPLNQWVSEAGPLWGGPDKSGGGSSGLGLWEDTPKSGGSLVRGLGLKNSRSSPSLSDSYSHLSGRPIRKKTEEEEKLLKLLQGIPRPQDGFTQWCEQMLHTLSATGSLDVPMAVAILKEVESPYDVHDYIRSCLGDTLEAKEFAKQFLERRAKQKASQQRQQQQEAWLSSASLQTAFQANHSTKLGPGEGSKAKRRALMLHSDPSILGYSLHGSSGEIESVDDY

[6] = target: T2, v5-GIGYF1 (full-length human GIGYF1) (human) (UniProt O75420); assay: co-IP
T2 sequence: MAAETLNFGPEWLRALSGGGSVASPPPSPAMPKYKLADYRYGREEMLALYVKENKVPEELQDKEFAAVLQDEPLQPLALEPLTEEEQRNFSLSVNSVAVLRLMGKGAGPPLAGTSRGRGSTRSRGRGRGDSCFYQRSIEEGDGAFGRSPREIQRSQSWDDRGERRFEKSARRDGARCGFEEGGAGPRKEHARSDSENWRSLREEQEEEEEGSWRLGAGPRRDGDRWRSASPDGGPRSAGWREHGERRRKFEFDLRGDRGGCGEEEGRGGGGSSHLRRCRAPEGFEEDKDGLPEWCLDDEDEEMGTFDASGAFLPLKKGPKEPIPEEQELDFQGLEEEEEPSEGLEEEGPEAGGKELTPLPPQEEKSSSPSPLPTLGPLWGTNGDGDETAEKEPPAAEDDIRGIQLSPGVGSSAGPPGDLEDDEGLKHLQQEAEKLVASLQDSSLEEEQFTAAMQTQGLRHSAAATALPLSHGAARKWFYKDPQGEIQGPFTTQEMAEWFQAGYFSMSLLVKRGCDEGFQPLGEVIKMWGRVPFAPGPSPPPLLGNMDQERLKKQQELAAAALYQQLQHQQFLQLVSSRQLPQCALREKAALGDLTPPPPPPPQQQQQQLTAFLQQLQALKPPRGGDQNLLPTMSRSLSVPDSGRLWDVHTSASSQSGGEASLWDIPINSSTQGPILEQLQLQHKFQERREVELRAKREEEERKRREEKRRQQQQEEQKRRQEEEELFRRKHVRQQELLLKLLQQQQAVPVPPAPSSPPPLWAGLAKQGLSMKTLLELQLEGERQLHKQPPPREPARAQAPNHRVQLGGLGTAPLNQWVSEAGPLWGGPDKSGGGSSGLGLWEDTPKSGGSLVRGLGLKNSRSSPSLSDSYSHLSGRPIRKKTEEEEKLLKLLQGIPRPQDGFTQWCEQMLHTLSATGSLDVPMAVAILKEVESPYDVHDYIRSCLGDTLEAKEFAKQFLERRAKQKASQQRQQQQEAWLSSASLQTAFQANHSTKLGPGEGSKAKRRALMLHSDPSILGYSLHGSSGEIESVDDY

FLAG-eIF3D [7] = target: FLAG-eIF3D (UniProt O15371); assay: proximity ligation; remark: listed apart in the source
FLAG-eIF3L = FLAG-eIF3L (UniProt Q9Y262); assay: proximity ligation
[8] = target: endogenous eIF3D (human (endogenous in HEK293)) (UniProt O15371); assay: co-IP; remark: listed apart in the source

Molecule: HA-eIF4G1 (from UniProt Q04637 1-1599)
binding (FLAG-eIF3D [3]): binds

Molecule: endogenous eIF2α (from UniProt P05198 1-315)
binding (FLAG-eIF3D [4]): binds

Molecule: endogenous eIF3D (from UniProt O15371 1-548)
binding [5]: binds | binding [6]: binds

B1: v5-tagged GIGYF1 fragment E (829-1035) (domain or fragment, UniProt O75420 829-1035)
chain: DKSGGGSSGLGLWEDTPKSGGSLVRGLGLKNSRSSPSLSDSYSHLSGRPIRKKTEEEEKLLKLLQGIPRPQDGFTQWCEQMLHTLSATGSLDVPMAVAILKEVESPYDVHDYIRSCLGDTLEAKEFAKQFLERRAKQKASQQRQQQQEAWLSSASLQTAFQANHSTKLGPGEGSKAKRRALMLHSDPSILGYSLHGSSGEIESVDDY
binding (FLAG-eIF3D [7]): binds | binding (FLAG-eIF3L): binds

B3: v5-tagged GIGYF1 fragment D (541-839) (domain or fragment, UniProt O75420 541-839)
chain: PLLGNMDQERLKKQQELAAAALYQQLQHQQFLQLVSSRQLPQCALREKAALGDLTPPPPPPPQQQQQQLTAFLQQLQALKPPRGGDQNLLPTMSRSLSVPDSGRLWDVHTSASSQSGGEASLWDIPINSSTQGPILEQLQLQHKFQERREVELRAKREEEERKRREEKRRQQQQEEQKRRQEEEELFRRKHVRQQELLLKLLQQQQAVPVPPAPSSPPPLWAGLAKQGLSMKTLLELQLEGERQLHKQPPPREPARAQAPNHRVQLGGLGTAPLNQWVSEAGPLWGGPDKSGGGSSGLG
binding (FLAG-eIF3D [7]): binds | binding (FLAG-eIF3L): binds

Continued, values first:

binding [1]: binds | binding [2]: binds
Molecule: endogenous eIF4G1 (from UniProt Q04637 1-1599)

binding [5]: binds | binding [6]: binds
Molecule: endogenous eIF3E (from UniProt P60228 1-445)

binding [8]: binds
B2: endogenous eIF4G2 (DAP5) (protein, UniProt P78344 1-907)
chain: MESAIAEGGASRFSASSGGGGSRGAPQHYPKTAGNSEFLGKTPGQNAQKWIPARSTRRDDNSAANNSANEKERHDAIFRKVRGILNKLTPEKFDKLCLELLNVGVESKLILKGVILLIVDKALEEPKYSSLYAQLCLRLAEDAPNFDGPAAEGQPGQKQSTTFRRLLISKLQDEFENRTRNVDVYDKRENPLLPEEEEQRAIAKIKMLGNIKFIGELGKLDLIHESILHKCIKTLLEKKKRVQLKDMGEDLECLCQIMRTVGPRLDHERAKSLMDQYFARMCSLMLSKELPARIRFLLQDTVELREHHWVPRKAFLDNGPKTINQIRQDAVKDLGVFIPAPMAQGMRSDFFLEGPFMPPRMKMDRDPLGGLADMFGQMPGSGIGTGPGVIQDRFSPTMGRHRSNQLFNGHGGHIMPPTQSQFGEMGGKFMKSQGLSQLYHNQSQGLLSQLQGQSKDMPPRFSKKGQLNADEISLRPAQSFLMNKNQVPKLQPQITMIPPSAQPPRTQTPPLGQTPQLGLKTNPPLIQEKPAKTSKKPPPSKEELLKLTETVVTEYLNSGNANEAVNGVREMRAPKHFLPEMLSKVIILSLDRSDEDKEKASSLISLLKQEGIATSDNFMQAFLNVLDQCPKLEVDIPLVKSYLAQFAARAIISELVSISELAQPLESGTHFPLFLLCLQQLAKLQDREWLTELFQQSKVNMQKMLPEIDQNKDRMLEILEGKGLSFLFPLLKLEKELLKQIKLDPSPQTIYKWIKDNISPKLHVDKGFVNILMTSFLQYISSEVNPPSDETDSSSAPSKEQLEQEKQLLLSFKPVMQKFLHDHVDLQVSALYALQVHCYNSNFPKGMLLRFFVHFYDMEIIEEEAFLAWKEDITQEFPGKGKALFQVNQWLTWLETAEEEESEEEAD
